No constants are given. Whether binding was seen depends on the method and setting. Some binding calls cover weakened binding; strength is not graded here.

Amino acid sequences for entries named in this document (tags omitted). Residues count along the entry.
UniProt Q80T03, residues 23-2850: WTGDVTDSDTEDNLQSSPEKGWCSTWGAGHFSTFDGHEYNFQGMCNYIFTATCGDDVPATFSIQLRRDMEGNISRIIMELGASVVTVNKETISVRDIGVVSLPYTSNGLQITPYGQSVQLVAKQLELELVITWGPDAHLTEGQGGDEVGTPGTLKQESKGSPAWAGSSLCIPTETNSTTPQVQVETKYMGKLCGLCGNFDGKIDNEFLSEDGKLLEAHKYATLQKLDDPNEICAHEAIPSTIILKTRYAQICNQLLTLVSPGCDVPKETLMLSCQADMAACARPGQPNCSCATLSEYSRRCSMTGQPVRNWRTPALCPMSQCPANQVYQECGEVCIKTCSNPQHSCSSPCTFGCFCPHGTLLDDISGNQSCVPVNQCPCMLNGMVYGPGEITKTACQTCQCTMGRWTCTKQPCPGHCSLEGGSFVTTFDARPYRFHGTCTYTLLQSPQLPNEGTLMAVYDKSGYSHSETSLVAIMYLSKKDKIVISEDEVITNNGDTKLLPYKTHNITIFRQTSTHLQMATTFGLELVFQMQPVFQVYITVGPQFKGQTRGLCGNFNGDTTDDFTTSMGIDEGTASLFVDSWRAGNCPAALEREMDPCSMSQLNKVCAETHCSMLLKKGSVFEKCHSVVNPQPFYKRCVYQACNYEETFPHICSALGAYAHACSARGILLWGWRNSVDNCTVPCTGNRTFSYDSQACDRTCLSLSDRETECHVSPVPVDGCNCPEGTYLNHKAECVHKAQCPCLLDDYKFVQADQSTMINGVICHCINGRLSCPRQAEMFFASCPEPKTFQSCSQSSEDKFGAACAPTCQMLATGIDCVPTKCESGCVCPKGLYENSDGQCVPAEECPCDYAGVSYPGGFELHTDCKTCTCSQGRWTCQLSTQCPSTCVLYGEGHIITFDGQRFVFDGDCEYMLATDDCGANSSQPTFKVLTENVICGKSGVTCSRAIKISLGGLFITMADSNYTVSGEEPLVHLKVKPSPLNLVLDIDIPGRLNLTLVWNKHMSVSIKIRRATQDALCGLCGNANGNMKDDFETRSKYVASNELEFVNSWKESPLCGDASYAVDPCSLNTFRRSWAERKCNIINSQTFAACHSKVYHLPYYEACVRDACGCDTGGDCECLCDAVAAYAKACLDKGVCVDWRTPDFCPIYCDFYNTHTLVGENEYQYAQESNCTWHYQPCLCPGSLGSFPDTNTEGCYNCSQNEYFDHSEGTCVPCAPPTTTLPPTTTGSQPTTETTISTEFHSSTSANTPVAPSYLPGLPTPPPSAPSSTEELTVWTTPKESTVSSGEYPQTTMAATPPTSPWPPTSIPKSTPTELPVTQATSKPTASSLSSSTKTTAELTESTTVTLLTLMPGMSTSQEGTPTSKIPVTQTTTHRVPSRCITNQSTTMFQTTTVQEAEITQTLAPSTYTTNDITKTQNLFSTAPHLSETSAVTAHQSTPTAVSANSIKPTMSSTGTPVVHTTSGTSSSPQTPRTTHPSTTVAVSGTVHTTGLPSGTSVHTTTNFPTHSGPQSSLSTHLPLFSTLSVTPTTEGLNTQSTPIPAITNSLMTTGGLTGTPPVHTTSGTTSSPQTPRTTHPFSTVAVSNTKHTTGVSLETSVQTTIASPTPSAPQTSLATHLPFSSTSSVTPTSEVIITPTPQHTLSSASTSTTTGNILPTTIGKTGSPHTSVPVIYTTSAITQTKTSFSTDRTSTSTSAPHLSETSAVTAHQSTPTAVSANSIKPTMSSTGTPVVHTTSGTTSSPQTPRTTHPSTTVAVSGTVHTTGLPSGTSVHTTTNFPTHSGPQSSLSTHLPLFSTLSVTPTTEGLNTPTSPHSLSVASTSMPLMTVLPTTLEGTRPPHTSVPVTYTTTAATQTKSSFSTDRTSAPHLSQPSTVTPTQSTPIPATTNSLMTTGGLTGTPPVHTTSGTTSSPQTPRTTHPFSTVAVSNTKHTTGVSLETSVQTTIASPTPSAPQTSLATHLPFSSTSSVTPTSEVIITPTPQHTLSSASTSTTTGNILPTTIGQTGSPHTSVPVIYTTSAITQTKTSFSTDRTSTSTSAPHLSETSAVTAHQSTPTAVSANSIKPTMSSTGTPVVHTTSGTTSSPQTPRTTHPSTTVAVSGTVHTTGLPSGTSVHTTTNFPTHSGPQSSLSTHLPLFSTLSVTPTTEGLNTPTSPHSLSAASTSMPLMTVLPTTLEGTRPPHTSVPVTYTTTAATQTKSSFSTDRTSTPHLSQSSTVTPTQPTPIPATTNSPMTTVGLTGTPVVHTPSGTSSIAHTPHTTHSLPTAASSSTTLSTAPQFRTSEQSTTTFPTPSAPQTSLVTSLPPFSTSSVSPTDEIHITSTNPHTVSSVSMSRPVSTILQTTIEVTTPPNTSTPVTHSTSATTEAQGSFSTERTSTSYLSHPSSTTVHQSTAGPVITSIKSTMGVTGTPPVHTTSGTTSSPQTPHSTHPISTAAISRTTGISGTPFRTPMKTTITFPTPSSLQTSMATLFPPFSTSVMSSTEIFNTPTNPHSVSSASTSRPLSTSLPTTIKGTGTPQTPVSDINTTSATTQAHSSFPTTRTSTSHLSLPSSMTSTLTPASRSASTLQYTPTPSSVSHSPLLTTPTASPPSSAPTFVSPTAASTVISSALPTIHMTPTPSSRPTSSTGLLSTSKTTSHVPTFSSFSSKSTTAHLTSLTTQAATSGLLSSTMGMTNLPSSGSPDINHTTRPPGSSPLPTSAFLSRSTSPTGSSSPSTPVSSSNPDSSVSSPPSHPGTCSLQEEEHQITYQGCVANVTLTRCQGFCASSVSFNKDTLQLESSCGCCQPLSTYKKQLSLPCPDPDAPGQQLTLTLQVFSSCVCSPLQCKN

The record followed here is article PMC10454331.

This test deals with mucin Muc6, murine (mouse (endogenous in murine caecum/colon)) (UniProt Q80T03). Kind of test: SEC; extract of murine caecum plus total colon (single individual) on Superdex 75 HL; Tff2 by Western blot of fractions after reducing and non-reducing SDS-PAGE; Muc6 by lectin GSA-II after 1% AgGE of fractions B6-C2. For orientation: In gel filtration, larger molecules generally elute earlier.

B1: Tff2 (trefoil factor family peptide 2), murine (protein, UniProt Q03404 24-129)
chain: EKPSPCRCSRLTPHNRKNCGFPGITSEQCFDLGCCFDSSVAGVPWCFHPLPNQESEQCVMEVSARKNCGYPGISPEDCASRNCCFSNLIFEVPWCFFPQSVEDCHY
For B1, the binding entry is “binds”.
